# Out of some 400,000 compounds screened, about 5,500 (1.4%) were called active. Inconclusive results, whose numbers are uncertain, are shown with a selection of clear calls. Calls follow the shape of the dose curve; as a rule, active = well fitted cell-killing curve with a large enough effect; inconclusive = small, poorly fitted or top-dose-only effect, or effect the other way; inactive = flat fitted curve, though single readings scatter. Potencies beside an inconclusive call are fits to weak or partial responses and may not hold up.
# Assay: qHTS assay for MDR1-selective chemotherapeutics: Primary screen using the parental adenocarcinoma cell KB-3-1; also: nearly all actives have a fitted effect of over 60% in size
# Conditions: KB-3-1 viability, CellTiter-Glo ATP luminescence, 72 h; activity change, negative = cytotoxic: at 46.1 µM (top of the series)
# Procedure, shortened: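 Screening of KB-3-1 cells (DMEM, 10% FBS, phenol-red free) ran from lowest to highest compound concentration; after 72 h at 37 °C viability was read luminescently and curves fitted.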
# % is scaled to controls: 0 for no effect and ±100 for the full control effect; potency is read from the fitted curve at half-maximal effect.
Compound,Potency,"activity change, negative = cytotoxic"
COc1ccc2nc(Nc3nc(CSc4nnnn4-c4ccccc4)cc(=O)[nH]3)nc(C)c2c1,"inconclusive: 29.1 µM [cytotoxic, single point]",
O=C(c1ccc2c(c1)N(Cc1ccccc1F)C(=O)c1ccccc1S2(=O)=O)N1CCN(c2ccccn2)CC1,"inconclusive: 16.4 µM [cytotoxic, single point]",
O=C(NNC(=O)c1ccccc1C(=O)O)c1ccc(O)cc1,"inconclusive: 14.6 µM [cytotoxic, single point]",
O=C(c1noc2c1CCc1ccccc1-2)N1CCOCC1,,inactive: 1.36%
O=C(NC(=O)c1c(F)cccc1F)Nc1cccc(Oc2ncc(Cl)cn2)c1,"inconclusive: 18.4 µM [cytotoxic, single point]",
OCCCN1c2ccccc2Nc2nnc(-c3ccccc3)cc21,"inconclusive: 6.51 µM [cytotoxic, partial curve, poor fit]",
Cc1cccc(NCc2ccc(O)c3ncccc23)c1,active: 23.1 µM,
Cc1cc(SCC(=O)N/N=C/c2ccc(O)c(O)c2O)c(C)cc1Br,"inconclusive: 23.1 µM [cytotoxic, single point]",
COc1ccc(CCCNC(=O)C2Cc3c(-c4cccc(C(N)=O)c4)ccnc3O2)cc1 (configuration not stated),"inconclusive: 20.6 µM [cytotoxic, single point]",
COc1ccc(C(CNc2ncnc3sc(C)c(C)c23)N(C)C)cc1 (configuration not stated),"inconclusive: 32.6 µM [cytotoxic, single point]",
Cc1c(NC(=O)OCCNC(=O)COc2ccc(Cl)cc2Cl)sc(=S)n1C,"inconclusive: 20.6 µM [cytotoxic, single point]",
OC[C@@H](O)[C@H](O)C(/C=N/Nc1ccccc1)=N\Nc1ccccc1,"inconclusive: 6.51 µM [cytotoxic, partial curve]",
Cc1ccccc1OCc1nc2c3c(ncn2n1)-c1ccccc1CC31CCCC1,"inconclusive: 13 µM [cytotoxic, partial curve, poor fit]",
C=CCC[C@@H](Cc1ccc(F)cc1)C(=O)OC[C@@H]1CCCN1C(=O)[C@@H](CC=C)CC(=O)N[C@@H](CO)Cc1ccccc1,active: 16.4 µM,
O=C(CN(c1ccc(F)cc1)S(=O)(=O)c1ccccc1)NCCSC1CCCCC1,,inconclusive: 2.51%
Cc1ccc(-c2csc(-c3cc4c([nH]c3=O)CC(c3ccccc3)CC4=O)n2)cc1 (configuration not stated),active: 0.82 µM,
CC(C)(C)OC(=O)N[C@@H](C(=O)OC(C)(C)C)c1ccccc1,"inconclusive: 20.6 µM [rising, single point]",
CC(NC(=O)Nc1cccc([N+](=O)[O-])c1)(C(F)(F)F)C(F)(F)F,active: 18.4 µM,
OCCCNCc1ccc(N(c2ccccc2)c2ccccc2)cc1,"inconclusive: 25.9 µM [cytotoxic, single point]",
Cc1ccc(N(C(=O)c2sc(C)nc2C)C(C(=O)NCc2ccco2)c2ccccc2)cc1 (configuration not stated),,inactive: 2.37%
Cc1cc(=O)oc2cc(OCC(=O)N/N=C/c3ccccc3O)ccc12,"inconclusive: 32.6 µM [rising, single point]",
COc1ccc(NC(=O)CN(c2cc(C)cc(C)c2)S(=O)(=O)c2c(C)noc2C)cc1,"inconclusive: 14.6 µM [cytotoxic, single point]",
O=C(NC1CCS(=O)(=O)C1)c1cccc(S(=O)(=O)N2CCCC2)c1 (configuration not stated),,inactive: -0.174%

Compound,Potency,"activity change, negative = cytotoxic"
Cc1cccc(C)c1NCc1nnc(SCC(=O)Nc2nc(-c3ccccc3)cs2)n1-c1ccccc1,"inconclusive: 16.4 µM [cytotoxic, partial curve, poor fit]",
Cc1ccc(C)c(NC(=O)CSc2n[nH]c(-c3ccccn3)n2)c1,"inconclusive: 20.6 µM [cytotoxic, single point]",
CCCc1cnc(Nc2nc(C(N)Cc3ccc(C(F)(F)F)cc3)cs2)nc1 (configuration not stated),"inconclusive: 29.1 µM [cytotoxic, single point]",
Cc1c(NC(=O)c2ccc(=O)oc2)c(=O)n(-c2ccccc2)n1C,"inconclusive: 18.4 µM [cytotoxic, single point]",
O=C(CCl)Nc1ccccc1C(=O)NCc1ccccc1,"inconclusive: 11.6 µM [cytotoxic, partial curve, poor fit]",
O=C1SCCC1NS(=O)(=O)c1ccccc1[N+](=O)[O-] (configuration not stated),"inconclusive: 32.6 µM [rising, partial curve, poor fit]",
CC(C)C[C@@H](CN1CCCC1CN1C(=S)NC[C@@H]1Cc1ccc(O)cc1)N1C[C@H](Cc2ccccc2)N(CC2CCCCCC2)C1=S (some centres not stated),,inactive: -22.1%
O=C(CCNC(=O)c1ccccc1)NNC(=O)c1ccc(F)cc1,,inactive: 6.41%
O=C(CSc1nc2ccccc2[nH]1)Nc1cc(C(F)(F)F)ccc1N1CCOCC1,"inconclusive: 18.4 µM [cytotoxic, partial curve]",
Cc1cc(C)nc(-n2nc(C)c3c2N(Cc2ccccc2)C(=O)CC3c2ccc(Cl)cc2)n1 (configuration not stated),,inactive: -3.92%
CN1C(=O)/C(=C2\SC(N3CCCCCC3)=NC2=O)c2ccccc21,"inconclusive: 6.51 µM [rising, partial curve]",
CCOC=C1SC(=S)N(c2ccccc2OC)C1=O,,inactive: 10.6%
Cc1c(Cl)cccc1NS(=O)(=O)c1ccc(-c2cnc(C3CC3)o2)cc1,"inconclusive: 0.231 µM [cytotoxic, full curve, poor fit]",
CC(C)C[C@H](N)C(=O)N1CCC(C(=O)N[C@H](C(=O)NCc2ccc(F)cc2)C(C)C)CC1,,inactive: 0%
CC(C)Cc1csc(NC(=O)c2ccc(Cl)cc2)c1C(=O)O,"inconclusive: 18.4 µM [cytotoxic, single point]",
COc1ccc(Oc2nc(-c3ccccn3)nc3ccccc23)cc1,"inconclusive: 29.1 µM [cytotoxic, single point]",
COc1cc(-c2[nH]ncc2CN2CCSCC2)cc(OC)c1OC,"inconclusive: 8.2 µM [cytotoxic, partial curve]",
O=C(Nc1ccc2c(c1)OCCO2)c1ccc2nccnc2c1,,inactive: -1.77%
O=C(Nc1ccc(Br)cc1F)c1ccc2c(c1)N(Cc1ccccc1)C(=O)CS2=O (configuration not stated),"inconclusive: 32.6 µM [cytotoxic, single point]",
CC(C)c1ccc(NC(=O)c2cc(S(=O)(=O)N(C)C3CCCCC3)ccc2F)cc1,"inconclusive: 16.4 µM [cytotoxic, single point]",
CSc1nc2ccccc2cc1/C=C(\C#N)c1ccc(Cl)c(Cl)c1,,inactive: -5.75%
CC(C)(C)c1nc2ccccc2c2nnc(SCC(=O)Nc3nc4ccccc4s3)n12,,inactive: -2.04%
CCCCOc1ccc(CSCCNC(=S)Nc2ccccc2)cc1,"inconclusive: 23.1 µM [cytotoxic, single point]",

# Ordered by formula weight (largest number first): some entries from above
Compound,Potency,"activity change, negative = cytotoxic"
C=CCC[C@@H](Cc1ccc(F)cc1)C(=O)OC[C@@H]1CCCN1C(=O)[C@@H](CC=C)CC(=O)N[C@@H](CO)Cc1ccccc1,active: 16.4 µM,
Cc1cccc(C)c1NCc1nnc(SCC(=O)Nc2nc(-c3ccccc3)cs2)n1-c1ccccc1,"inconclusive: 16.4 µM [cytotoxic, partial curve, poor fit]",
COc1ccc2nc(Nc3nc(CSc4nnnn4-c4ccccc4)cc(=O)[nH]3)nc(C)c2c1,"inconclusive: 29.1 µM [cytotoxic, single point]",
CC(C)C[C@H](N)C(=O)N1CCC(C(=O)N[C@H](C(=O)NCc2ccc(F)cc2)C(C)C)CC1,,inactive: 0%
Cc1c(Cl)cccc1NS(=O)(=O)c1ccc(-c2cnc(C3CC3)o2)cc1,"inconclusive: 0.231 µM [cytotoxic, full curve, poor fit]",
CSc1nc2ccccc2cc1/C=C(\C#N)c1ccc(Cl)c(Cl)c1,,inactive: -5.75%
COc1cc(-c2[nH]ncc2CN2CCSCC2)cc(OC)c1OC,"inconclusive: 8.2 µM [cytotoxic, partial curve]",
O=C(CCNC(=O)c1ccccc1)NNC(=O)c1ccc(F)cc1,,inactive: 6.41%
OC[C@@H](O)[C@H](O)C(/C=N/Nc1ccccc1)=N\Nc1ccccc1,"inconclusive: 6.51 µM [cytotoxic, partial curve]",
Cc1c(NC(=O)c2ccc(=O)oc2)c(=O)n(-c2ccccc2)n1C,"inconclusive: 18.4 µM [cytotoxic, single point]",
OCCCN1c2ccccc2Nc2nnc(-c3ccccc3)cc21,"inconclusive: 6.51 µM [cytotoxic, partial curve, poor fit]",
O=C1SCCC1NS(=O)(=O)c1ccccc1[N+](=O)[O-] (configuration not stated),"inconclusive: 32.6 µM [rising, partial curve, poor fit]",
CCOC=C1SC(=S)N(c2ccccc2OC)C1=O,,inactive: 10.6%
Cc1cccc(NCc2ccc(O)c3ncccc23)c1,active: 23.1 µM,

# Next results follow.

Compound,Potency,"activity change, negative = cytotoxic"
COc1ccc2cc1Oc1ccc(cc1)C[C@H]1c3cc(c(OC)cc3CCN1C)Oc1c(OC)c(OC)cc3c1[C@H](C2)N(C)CC3,"inconclusive: 20.6 µM [cytotoxic, single point]",
COc1ccc(/C=C(\NC(=O)c2ccccc2Cl)C(=O)NCCCC(=O)O)cc1,"inconclusive: 29.1 µM [rising, single point]",
CCCCn1c(=NC(=O)c2cccnc2)c(C(=O)OCC)cc2c(=O)n3ccccc3nc21,"inconclusive: 14.6 µM [rising, partial curve, poor fit]",
Cc1cccc(OC(=O)c2cccnc2)c1,"inconclusive: 29.1 µM [rising, single point]",
CC(C)(C)c1nnc2sc(SCC(=O)N3CCCc4ccccc43)nn2c1=O,"inconclusive: 29.1 µM [cytotoxic, single point]",
CCOC(=O)CSc1ccc2ccccc2n1,,inactive: -3.72%
Cc1cccc2cc(CN(Cc3ccccc3)Cc3nnnn3Cc3ccccc3)c(=O)[nH]c12,"inconclusive: 29.1 µM [cytotoxic, single point]",
Cc1ccc(CN2C(=O)CCC2(C)c2nnnn2-c2ccc3c(c2)OCCO3)cc1 (configuration not stated),,inactive: 3.43%
CCOc1cccc(C2C=C(c3ccc4c(c3)OCO4)NC(c3ccc(F)cc3)N2)c1O (configuration not stated),,inactive: -15.4%
COc1ccc(S(=O)(=O)N(C)C[C@@H]2Oc3cc(C#CC4CCCCC4)ccc3S(=O)(=O)N([C@@H](C)CO)C[C@@H]2C)cc1,"inconclusive: 29.1 µM [cytotoxic, single point]",
CC(O)(CS(=O)(=O)Cc1cccc(C(F)(F)F)c1)C(=O)Nc1cccc(C(F)(F)F)c1 (configuration not stated),,inactive: 6.52%
COC(=O)C1C2CC(=O)C(C2)C1C(=O)OC (configuration not stated),,inconclusive: 5.15%
Cc1ccc(S(=O)(=O)N(CC(=O)N/N=C/c2cccc(Cl)c2)c2cccc3cccnc23)cc1,"inconclusive: 29.1 µM [cytotoxic, single point]",
Fc1cccc(Cl)c1Cn1nnc2c(NCc3ccncc3)ncnc21,"inconclusive: 25.9 µM [cytotoxic, partial curve, poor fit]",
CCOC(=O)c1c(C)[nH]c(C)c1C(=O)COC(=O)c1nn(CC)c(=O)c2ccccc12,,inactive: -0.244%
Cc1cc(C)c(NC(=O)CSc2nnc(CNC(=O)c3ccco3)o2)c(C)c1,,inactive: 2.59%
CC(C)(C)OC(=O)N1CCC(c2c(C(=O)NCCN3CCc4ccccc4C3)cnn2-c2ccc(F)cc2)CC1,,inactive: 1.22%
Cc1ccc(CNC(=O)Nc2cc(C(=O)NCc3ccc(C(C)C)cc3)ccc2N2CCCC2)cc1,"inconclusive: 29.1 µM [cytotoxic, single point]",
Cc1cc(=O)oc2cc(OCC3CC(c4ccccc4Cl)=NO3)ccc12 (configuration not stated),active: 1.3 µM,
CN1CCC(OC(=O)COc2ccc(Br)cc2)CC1,"inconclusive: 2.59 µM [cytotoxic, partial curve, poor fit]",
CCc1cc2c(CN3CCN(Cc4ccccc4)CC3)cc(=O)oc2cc1O,,inactive: -13%
